Primary screen of a compound library

Amino acid sequences for entries named in this document (tags omitted).
UniProt E9BF75, entry or part of it: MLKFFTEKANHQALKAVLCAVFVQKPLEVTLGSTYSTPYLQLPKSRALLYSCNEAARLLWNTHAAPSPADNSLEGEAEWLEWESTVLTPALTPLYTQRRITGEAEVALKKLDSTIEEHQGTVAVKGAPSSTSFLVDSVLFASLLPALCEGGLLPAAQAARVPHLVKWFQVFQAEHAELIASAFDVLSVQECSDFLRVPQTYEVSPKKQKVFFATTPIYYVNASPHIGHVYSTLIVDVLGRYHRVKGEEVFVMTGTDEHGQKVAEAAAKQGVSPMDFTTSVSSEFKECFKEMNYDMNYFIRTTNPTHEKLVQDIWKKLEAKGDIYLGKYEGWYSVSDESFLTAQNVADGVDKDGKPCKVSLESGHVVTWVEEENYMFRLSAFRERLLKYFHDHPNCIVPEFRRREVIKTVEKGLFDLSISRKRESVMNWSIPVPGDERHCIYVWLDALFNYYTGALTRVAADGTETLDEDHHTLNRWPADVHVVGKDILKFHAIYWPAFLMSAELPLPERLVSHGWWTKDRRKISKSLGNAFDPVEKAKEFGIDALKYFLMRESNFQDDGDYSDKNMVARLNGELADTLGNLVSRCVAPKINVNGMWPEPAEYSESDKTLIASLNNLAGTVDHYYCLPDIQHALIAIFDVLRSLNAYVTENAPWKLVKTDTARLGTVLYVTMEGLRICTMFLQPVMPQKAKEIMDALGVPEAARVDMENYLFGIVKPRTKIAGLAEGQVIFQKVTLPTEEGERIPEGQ

Measurements from “University of Dundee, Small-Polar-MMV Screening Library” (2021), ChEMBL document CHEMBL3988442.

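Primary screen of methionyl-tRNA synthetase; the read-out is not stated. Target: Methionyl-tRNA synthetase (putative), Leishmania donovani (UniProt E9BF75). The test concentration is not given. Values are per cent inhibition. Of about 68,000 compounds tested this way, about 24 (0.035%) reached 50% or more in at least one test.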

All values are in %.
How 0% and 100% were set is not recorded. Most values in the screen are low, and negative values occur.
The compounds are a random part of those screened.

structure,inhibition
NC(=O)c1ccc(C(=O)N2CCCC(n3ccnc3)C2)s1 (configuration not stated),25.68%
COCCN(C)C(C(=O)O)c1cc(Cl)ccc1OC (configuration not stated),0.9639%
COc1ccc(C(C)NC(=O)NCCNc2ccccn2)c(OC)c1 (configuration not stated),8.099%
CNC(=O)CS(=O)(=O)Cc1coc(-c2cccc(F)c2)n1,4.569%
CN(C(=O)Nc1ccccn1)C1CCCN(c2ccccc2)C1=O (configuration not stated),2.174%
COCc1ccccc1C(=O)N1CCn2c(nnc2C(C)C)C1,9.424%
CCC(CC)C(=O)N1CCN(Cc2nc3ccccc3c(=O)[nH]2)CC1,7.742%
CCc1nc(C2CCCN(C(=O)C3=NN(C(C)C)C(=O)CC3)C2)no1 (configuration not stated),3.957%
Cn1c(=O)c2cc(C(=O)NCc3ccncc3)ccc2n(C)c1=O,8.919%
CCn1ccnc1CN1CCN(Cc2cnc(C)cn2)CC1C (configuration not stated),13.35%
CCc1cnc(NCC(CC)N2CCOCC2)nc1 (configuration not stated),6.747%
CC(C)CNC(=O)c1cc(C2CC2)nc2onc(C3CCNCC3)c12,12.57%
Cc1cc(C2CCCN2Cc2ccn(C)c(=O)c2)on1 (configuration not stated),20.7%
CN(C)C(=O)CN1CCc2ncnc(N(C)C)c2CC1,17.66%
Cc1cc2cc(CNC3CCN(CC4CCOC4)CC3)oc2cc1C (configuration not stated),21.63%
CCOc1ccnc(N2CCN(C(=O)c3cn[nH]c3CC)CC2)n1,9.859%
CC(C)c1cc(=O)[nH]c(C(C)(C)N)n1,5.783%
CN(C)S(=O)(=O)NCc1nn(CCN2CCCC2)c(=O)c2ccccc12,17.07%
O=C(NCC(O)c1ccsc1)c1sccc1OC(F)F (configuration not stated),6.443%
CC(C)Oc1ncccc1CNC(=O)N1CCC(C(N)=O)C1 (configuration not stated),8.163%
Cc1cnc(C(=O)N2CCCC(n3cccn3)C2)cn1 (configuration not stated),9.143%
Cn1cc(-c2csc(N3CCCCCC3)n2)cn1,18.35%
CCCN1CCN(C(=O)c2cncnc2C)[C@H]2CS(=O)(=O)C[C@H]21,3.846%
COc1cccc2ccc(CN3CCN(c4ccncc4)CC3)nc12,15.12%
CC(C)N(C)[C@@H]1CCN(Cc2ccco2)[C@H]1Cc1ccccc1,8.333%
CC(C)c1noc(CN(Cc2ccccc2F)C2CC2)n1,3.937%
O=C(NC1CC1)N1CC[C@H](OCC2CC2)[C@@H]1Cc1cccnc1,8.795%
CCc1ncc(C(=O)N2CCCN(C3CCCCC3)CC2)cn1,-6.723%
Cc1[nH]ncc1CCCNC(=O)N1CCOC(C)C1 (configuration not stated),2.899%
Cn1ccc(C(=O)NC2CCC23CCN(Cc2nccs2)CC3)c1 (configuration not stated),17.18%
O=C(CCc1cc2n(n1)CCCN(Cc1ccccc1F)C2)NC1CC1,7.08%
Cc1cc(CN2CCOC(C)(C(=O)N3CCOCC3)C2)no1 (configuration not stated),11.46%
CC(C)(C)C(=O)NCC(=O)NCCc1nc(C(F)(F)F)cs1,16.94%
O=C(NCc1nn(-c2ccccc2)c2c1CCC2)NC1CC1,9.202%
COc1ccc(CNC2CCN(c3ccccc3)C2)c(OC)c1OC (configuration not stated),12.57%
N#Cc1ccccc1CN1CCC(CN2CCOCC2)C1 (configuration not stated),9.309%
Cc1ccc(CN2CCOC3(CCN(C(=O)N4CCCC4)CC3)C2)cc1,16.26%
O=c1c(C(F)(F)F)cccn1Cc1nnc(-c2cccnc2)o1,11.76%
Cc1nc(N(C)C)ncc1C(=O)N[C@@H]1CCc2ccccc21,19.24%
CCn1ncc(CN2C[C@@H]3CCCN3C[C@@H]2CCSC)c1C,19.42%
Cc1nc(CN(C)CC2CCCN2c2cccnn2)nc2ccccc12 (configuration not stated),47.77%
COCCN1CCC2(COCCN(C(=O)Cc3cccs3)C2)C1 (configuration not stated),-4.261%
CC(C)c1noc(CCCC(=O)N2CCN(Cc3cccnc3)CC2)n1,16.76%
Cc1cc(NC(C)c2nncn2C2CCCC2)n2nc(C)cc2n1 (configuration not stated),7.107%
CCOC(=O)C1CCCN(c2nccc(-n3nc(C)cc3C)n2)C1 (configuration not stated),18.82%
CCN(C)c1ncc2c(c1C(=O)O)CCN(C1CCOC1)C2 (configuration not stated),8.333%
CCC(O)c1nc2c([nH]1)CC(C)(C)CNC2=O (configuration not stated),1.832%
c1ccc(Cn2cc(CNC3CCc4ncnn4C3)cn2)cc1 (configuration not stated),12.5%
Nc1nnnn1NCc1ccccc1C(F)(F)F,13.31%
O=C(NC1CC1)c1nc(Cn2c(C(F)F)nc3ccccc32)no1,7.619%
O=C(CCN1CCCO1)N1CCCC(CO)(CCCc2ccccc2)C1 (configuration not stated),18.77%
O=S(=O)(NCCSc1nccn1C1CC1)c1ccccc1,67.7%
CCc1ccsc1C(=O)N1CCCN(Cc2cscn2)CC1,14.92%
Cc1cc(C)n(CC2CCCCN2CC(=O)Nc2nnc(C)s2)n1 (configuration not stated),15.73%
CNc1cc2c(nn1)CCN(C(=O)c1ccc3c(c1)OCO3)C2,19.89%
CCN(Cc1cnn(C)c1)C[C@H]1CC[C@@H](Cc2ccc(C)nc2)O1,6.977%
Cc1nn(C)c2cn(CC(=O)NC3CCSCC3)nc12,10.17%
CC(C)CN1CCN(C(=O)c2cccnc2-n2cncn2)CC1,-0.5435%
CC(C)(C)CC(=O)NCC(=O)NS(=O)(=O)c1cccnc1,12.4%
Cc1ccccc1OCC(=O)N1CCCC(CNS(C)(=O)=O)C1 (configuration not stated),11.58%
CC(C)CCc1noc(CN2CCCC(CNS(N)(=O)=O)C2)n1 (configuration not stated),12.03%
NC(=O)CN1CCC2(CC1)C[C@@H](O)[C@H](c1ccccc1)NC2=O,10.32%
Cc1nccn1CCCn1cncc1-c1ccc2c(c1)CCC(C)N2C (configuration not stated),44.97%
CN1CCN(c2ccc(NS(=O)(=O)c3ccc(Cl)s3)cc2C(=O)O)CC1,7.726%
CCCc1nc(N2CCSCC2)c2c(n1)c(C)nn2CC,14.21%
O=C(NCc1cccnc1-n1cncn1)c1cncc(Br)c1,11.78%
O=C(C(c1ccccc1)S(=O)(=O)c1ccccn1)N1CCCC1 (configuration not stated),5.721%
OCC1CCCN1c1cc(NCCc2c[nH]c3ccccc23)ncn1 (configuration not stated),16.26%
Cc1[nH]c2c(F)cccc2c1CC(=O)NCCCNc1cccnc1,18.66%
Cc1nc(C)n(CC2CCCN(c3ncnc4ccccc34)C2)n1 (configuration not stated),17.66%
CN(C)[C@@H]1CCN(C(=O)c2cccn2C)[C@H]1Cc1cnn(C)c1,6.965%
Cc1nc(CN2CCC(C(=O)O)(n3ccc(-c4ccco4)n3)CC2)co1,13.5%
CC(O)CN(Cc1cccc(C(=O)N(C)C)c1)c1ccccc1 (configuration not stated),1.918%
Fc1ccc(CN2CCO[C@H]3[C@H](OCC4CCCC4)CC[C@@H]32)cc1,7.397%
Fc1ccc(CN2C[C@@H](OCc3ccccn3)[C@H]3COC[C@H]32)cc1,20.16%
c1cc(-c2nnc(C3(c4ccc5c(c4)OCO5)CCOCC3)o2)ccn1,11.29%
CC(C)CNC(=O)Cc1cnc(-n2cccc2)s1,14.16%
CC(NC(=O)CCn1cccn1)c1cn(-c2ccccc2)nn1 (configuration not stated),12.53%
CNC(=O)CN1CCC(CN(C)Cc2ccncc2Cl)CC1,23.99%
CCCC(=O)N1CC[C@@H]2[C@H](CC1)N(Cc1cccc(C)n1)CCS2(=O)=O,12.11%
CCn1nc(C)c(CNC(=O)c2cn(CCC3CCCCN3)nn2)c1C (configuration not stated),20.49%
CN(C)C(=O)NC1COC2(CCN(Cc3ccco3)CC2)C1 (configuration not stated),14.29%
COc1cccc(CNC[C@@]2(COc3cccnc3)C[C@@H](O)[C@@H](O)C2)c1,5.085%
Cc1nc2cc(O)nn2c(C)c1CCC(=O)N(C)Cc1ccccc1,24.54%
Cc1cnc(N2CCc3c(c(COc4cncnc4)nn3C)C2)nc1,4.651%
O=C(C1=CCCC1)N1C[C@@H]2COC[C@]2(COc2cccnc2)C1,10.44%
O=C(C1CCCCC1)N1CCC(c2n[nH]c3nccnc23)CC1,12.94%

For reference, 7 entries once more:

| structure | inhibition |
|---|---|
| `CN(C)S(=O)(=O)NCc1nn(CCN2CCCC2)c(=O)c2ccccc12` | 17.07% |
| `Fc1ccc(CN2C[C@@H](OCc3ccccn3)[C@H]3COC[C@H]32)cc1` | 20.16% |
| `Cc1cc(C2CCCN2Cc2ccn(C)c(=O)c2)on1` (configuration not stated) | 20.7% |
| `O=C(C(c1ccccc1)S(=O)(=O)c1ccccn1)N1CCCC1` (configuration not stated) | 5.721% |
| `CC(C)N(C)[C@@H]1CCN(Cc2ccco2)[C@H]1Cc1ccccc1` | 8.333% |
| `CC(C)CNC(=O)Cc1cnc(-n2cccc2)s1` | 14.16% |
| `Fc1ccc(CN2CCO[C@H]3[C@H](OCC4CCCC4)CC[C@@H]32)cc1` | 7.397% |